Measured values from article PMC8782181.
Results are given in words; binding and its absence hold for the method and conditions named. In cells and extracts the contact can be indirect. These calls come from enrichment with a bait or labelling near it, and not all partners need be listed.

Amino acid sequences for entries named in this document (tags omitted).
UniProt P53297: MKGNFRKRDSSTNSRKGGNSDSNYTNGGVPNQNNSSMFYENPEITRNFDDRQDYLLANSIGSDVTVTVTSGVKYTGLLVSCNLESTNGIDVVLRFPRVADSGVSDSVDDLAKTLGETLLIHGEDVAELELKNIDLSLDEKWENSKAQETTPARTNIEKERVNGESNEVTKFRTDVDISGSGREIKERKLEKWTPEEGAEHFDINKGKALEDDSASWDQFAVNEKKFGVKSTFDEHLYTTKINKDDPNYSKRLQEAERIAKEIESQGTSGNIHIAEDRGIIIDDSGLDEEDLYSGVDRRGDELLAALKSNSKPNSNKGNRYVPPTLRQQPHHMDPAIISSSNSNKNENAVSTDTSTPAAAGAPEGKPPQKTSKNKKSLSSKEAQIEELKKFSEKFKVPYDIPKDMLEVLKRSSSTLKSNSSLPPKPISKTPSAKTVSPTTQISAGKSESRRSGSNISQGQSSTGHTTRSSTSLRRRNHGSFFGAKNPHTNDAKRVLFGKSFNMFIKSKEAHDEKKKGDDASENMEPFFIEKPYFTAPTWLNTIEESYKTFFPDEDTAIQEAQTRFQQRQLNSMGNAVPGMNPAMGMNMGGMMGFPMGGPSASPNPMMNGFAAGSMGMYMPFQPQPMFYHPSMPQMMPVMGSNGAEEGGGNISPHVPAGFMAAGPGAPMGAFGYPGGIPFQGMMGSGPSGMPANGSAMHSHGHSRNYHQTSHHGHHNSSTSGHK

Biological target: Pbp1-myc (S. cerevisiae) (UniProt P53297)
Assay: affinity purification with mass spectrometry; cells unstressed or glucose-depleted (10 min for Dcp1-myc, 60 min for Pbp1-myc), cross-linked with 0.8% formaldehyde; 20,000 g pellet of the lysate in Blob100 buffer (20 mM Tris-HCl pH 8, 100 mM NaCl, 1 mM MgCl2, 0.5% NP40) on anti-c-Myc magnetic beads, eluted with Myc peptide; label-free LC-MS/MS; hits are the proteins that cluster (Mfuzz) with the tagged bait across IP, pellet, supernatant, total and unbound fractions

B1: Sec27 (protein, UniProt P41811 1-889)
chain: MKLDIKKTFSNRSDRVKGIDFHPTEPWVLTTLYSGRVELWNYETQVEVRSIQVTETPVRAGKFIARKNWIIVGSDDFRIRVFNYNTGEKVVDFEAHPDYIRSIAVHPTKPYVLSGSDDLTVKLWNWENNWALEQTFEGHEHFVMCVAFNPKDPSTFASGCLDRTVKVWSLGQSTPNFTLTTGQERGVNYVDYYPLPDKPYMITASDDLTIKIWDYQTKSCVATLEGHMSNVSFAVFHPTLPIIISGSEDGTLKIWNSSTYKVEKTLNVGLERSWCIATHPTGRKNYIASGFDNGFTVLSLGNDEPTLSLDPVGKLVWSGGKNAAASDIFTAVIRGNEEVEQDEPLSLQTKELGSVDVFPQSLAHSPNGRFVTVVGDGEYVIYTALAWRNKAFGKCQDFVWGPDSNSYALIDETGQIKYYKNFKEVTSWSVPMHSAIDRLFSGALLGVKSDGFVYFFDWDNGTLVRRIDVNAKDVIWSDNGELVMIVNTNSNGDEASGYTLLFNKDAYLEAANNGNIDDSEGVDEAFDVLYELSESITSGKWVGDVFIFTTATNRLNYFVGGKTYNLAHYTKEMYLLGYLARDNKVYLADREVHVYGYEISLEVLEFQTLTLRGEIEEAIENVLPNVEGKDSLTKIARFLEGQEYYEEALNISPDQDQKFELALKVGQLTLARDLLTDESAEMKWRALGDASLQRFNFKLAVEAFTNAHDLESLFLLHSSFNNKEGLVTLAKDAERAGKFNLAFNAYWIAGDIQGAKDLLIKSQRFSEAAFLGSTYGLGDDAVNDIVTKWKENLILNGKNTVSERVCGAEGLPGSSSSGDAQPLIDLDSTPAPEQADENKEAEVEDSEFKESNSEAVEAEKKEEEAPQQQQSEQQPEQGEAVPEPVEEES
  binding: binds

B2: Sgn1 (protein, UniProt P40561 1-250)
chain: MSQEEKVDAKATLKTEISNNKKNDKQELELDELVGKLSIEGTPQVSQKLSKEEKHAHQLEADSRSIFVGNITPDVTPEQIEDHFKDCGQIKRITLLYDRNTGTPKGYGYIEFESPAYREKALQLNGGELKGKKIAVSRKRTNIPGFNRHYNSQNQYFQQWQWNYPLMAYPNPDTFPYYPPYPPNQSPNQNFGYNKNNYYRSPYNNKNRTFQKKHFNSAKDSTKNIRSTSQKPVVMPSDNVKSSTQEKDSK
  binding: binds

B3: Srp54 (protein, UniProt P20424 1-541)
chain: MVLADLGKRINSAVNNAISNTQDDFTTSVDVMLKGIVTALLESDVNIALVSKLRNNIRSQLLSENRSEKSTTNAQTKKLIQKTVFDELCKLVTCEGSEEKAFVPKKRKTNIIMFVGLQGSGKTTSCTKLAVYYSKRGFKVGLVCADTFRAGAFDQLKQNAIRARIPFYGSYTETDPAKVAEEGINKFKKEKFDIIIVDTSGRHHQEEELFQEMIEISNVIKPNQTIMVLDASIGQAAEQQSKAFKESSDFGAIILTKMDGHARGGGAISAVAATNTPIIFIGTGEHIHDLEKFSPKSFISKLLGIGDIESLFEQLQTVSNKEDAKATMENIQKGKFTLLDFKKQMQTIMKMGPLSNIAQMIPGMSNMMNQVGEEETSQKMKKMVYVLDSMTKEELESDGRMFIEEPTRMVRVAKGSGTSVFEVEMILMQQQMMARMAQTATQQQPGAPGANARMPGMPNMPGMPNMPGMPNMPGMPKVTPQMMQQAQQKLKQNPGLMQNMMNMFGGGMGGGMGGGMPDMNEMMKMMQDPQMQQMAKQFGMG
  binding: binds

B4: Srp68 (protein, UniProt P38687 1-599)
chain: MVAYSPIIATYGNRAEQFLETDSDFAKYHAKLNKKLQHLRSRCHLVTKDTKKYSSKNKYGEINSEDYDNKTKLIGVLILLHAERDLALAETLKLRARQRGKLKKSEEKVLSTRLKKACKTADKLVNVTQNEQQWITRAQYLAFAKLVHSEYLINGKRFKRKDNAKISNNLALVFAALEHLKNLSLLAEEVVDNIVNKYQYSLKQYAGNLITTPEINNFIVERVQSDENKDDELVKLLLDNGFNMKKITTSTEDQKVTTNINWRSFNAKIIDAEVAQFLEQGLSIHPTQITQYTQRLSKLEKALDRHEFFIANHDDQDDIDEMVENSSENNQIILAYIKYNILLTSISRERDLFTHLWNQWLKLNTSLPSKLTKYKEMERIVKNLTKYLSDIMELPGVYSDDELLSQLDLCKLYFQLFLNTGCLSVLYQSKGRYMEALALYVDAYRRLENKLSEIESLDEILLPANLLSLNSVRSLQKRIENGGNSVITLAEYEKRNHGGSLGKYDLTVIEKLDSKKILPTDIQLKNLFPLKPKMLPIPSKPTLFDLAFNYITYDKQEPSASQVKDSVTETESISQTPISNEQTEGEPKKKRGFLGLFGR
  binding: binds
